Some results were stated once for a whole list of compounds, not compound by compound. For part of these data: At least one structure is not confirmed: it was looked up by name or label, or the drawing left a doubt.
Experiments:
Type in all cases: cell-based, human
[1] = system: nitroreductase NfsA-expressing HCT116 'activator' cells; assay: MCL (multicellular layer) bystander experiment, NfsA-dependent activation; conditions: inventors' summary, FIGS. 6 and 30
Method: Displacement of the Target cell survival curve to the left (T to Tc) is indicative of the presence of a cytotoxic metabolite(s) able to diffusible out of the sensitive activator (A) cell population. The prodrug concentrations for 10% survival (C10) of target cells (wild-type cells) grown without activators (T), targets in co-culture (TC) and activators (nfsA-expressing cells) in co-culture (AC) were determined by interpolation. BEE-Bystander effect efficiency calculates the drugs bystander effect: ((Log C10T−Log C10TC)/(Log C10T−Log C10AC)).
The prodrug concentrations for 10% survival (C10) of target cells (wild-type cells) grown without activators (T), and targets in co-culture (TC) and activators (NTR-expressing cells) in co-culture (AC) can be determined. The bystander effect of a test prodrug is measured by the bystander effect efficiency which can be calculated using the algorithm ((Log C10T−Log C10TC)/(Log C10T−Log C10AC)).
Millicell-CM membrane inserts (Millipore) were coated in calf-skin collagen type III (Sigma-Aldrich) to facilitate cell attachment. […] After exposure, inserts were disaggregated (0.07% trypsin, 10 min, 37° C., followed by 100 μg/ml DNAase I (Sigma-Aldrich). Cells were counted, resuspended and plated in P60 dishes to determine clonogenic survival. To discriminate clonogenic activator (NTR+) from target (NTR−) colonies cells were plated in non-selective medium (total cells) and medium containing 1 μM puromycin (activator cells). Colonies were grown in a 37° C. 5% CO2 incubator for 10 days before staining with methylene blue (2 g/liter in 50% v/v aqueous ethanol). Colonies containing >50 cells were counted as clonogenic survivors. Surviving fractions for each population was calculated as the plating efficiency for drug-treated MCLs/untreated controls. The drug concentrations for 10% survival (C10) of target cells grown without activators (T), targets in co-culture (Tc) and activators in co-culture (Ac) was determined by interpolation.

[2] = system: HCT116 cells expressing E. coli NfsB; assay: Monolayer antiproliferative (IC50) assay, NTR-expressing HCT116; conditions: in vitro proliferation assay
Method: (§1) FIGS. 10 (B) and 10 (C) illustrates the results of evaluation of 2-nitroimidazole clinical imaging candidates with E. coli and non-E. coli NTRs. Stably-expressing cells were treated with varying concentration of 2-nitroimidazole prodrugs diluted in αMEM+5% FCS+P/S. Cells were exposed to prodrug for 18 hrs, washed and left to regrow for 5 days. IC50 was determined as the concentration of prodrug required to inhibit cell growth by 50% of untreated controls. IC50 values are mean for ≥2 independent experiments. WT:NTR ratio-ratio of IC50 means from WT cells versus NTR-expressing cell lines.
(§2) FIG. 21 illustrates antiproliferative activity (IC50 value) of prodrug candidates with E. coli and non-E. coli nitroreductases. Stably-expressing cells were treated with varying concentration of prodrug diluted in αMEM+5% FCS+P/S. Cells were exposed to prodrug for 18 hrs, washed and left to regrow for 5 days. IC50 was determined as the concentration of prodrug required to inhibit cell growth by 50% of untreated controls. IC50 values are mean for ≥2 independent experiments. […]
(§3) Cells were passaged in alpha-Minimal Essential Media, (αMEM; Gibco) supplemented with 5% FBS, (GIBCO NZ) without antibiotics. […] Plates were read on an ELx 808 Absorbance Microplate Reader (Bio-Tek Instruments). Absorbance was measured at 490 nm and 450 nm (final absorbance 490-450). […]

[3] = system: HCT116 cells expressing E. coli NfsA; conditions: in vitro proliferation assay
Method: as §1, §2, §3

Row | SMILES | bystander effect class of activated prodrug [1] | fold sensitivity (WT versus NTR-expressing cells) [2] | fold sensitivity (WT versus NTR-expressing cells) [3]
1 | NC(=O)c1cc(N2CC2)c([N+](=O)[O-])cc1[N+](=O)[O-] [CB 1954, 5-(aziridin-1-yl)-2,4-dinitrobenzamide] | substantial (a BEE value of greater than about 50%, about 60%, about 70% is considered “substantial”) |  | 
2 | O=[N+]([O-])c1nccn1CC(O)CNCCBr (stereo not drawn) [CI-1010, 1-((2-bromoethyl)amino)-3-(2-nitro-1H-imidazol-1-yl)propan-2-ol] | substantially minimal (A BEE value of less than about 15%, less than about 10%, less than about 5%, less than about 1% or zero is considered “substantially minimal”) |  | 
3 | CC(OC(=O)N(N(CCCl)S(C)(=O)=O)S(C)(=O)=O)c1ccc([N+](=O)[O-])c(O)c1 (stereo not drawn) [KS119, 1-(3-hydroxy-4-nitrophenyl)ethyl 2-(2-chloroethyl)-1,2-bis(methylsulfonyl)hydrazinecarboxylate] | substantially minimal (A BEE value of less than about 15%, less than about 10%, less than about 5%, less than about 1% or zero is considered “substantially minimal”) |  | 
4 | NP(=O)(OCc1ccc([N+](=O)[O-])cc1)N(CCCl)CCCl (stereo not drawn) [LH7] | substantially minimal (A BEE value of less than about 15%, less than about 10%, less than about 5%, less than about 1% or zero is considered “substantially minimal”) |  | 
5 | Cc1ncc([N+](=O)[O-])n1CCO [Metronidazole, 2-(2-methyl-5-nitro-1H-imidazol-1-yl)ethanol] |  | > 10 fold | > 10 fold
6 | CS(=O)(=O)OCCN(CCBr)c1c(C(=O)NCCO)cc([N+](=O)[O-])cc1[N+](=O)[O-] [PR-104A, 2-((2-bromoethyl)(2-((2-hydroxyethyl)carbamoyl)-4,6-dinitrophenyl)amino)ethyl methanesulfonate] | substantial (a BEE value of greater than about 50%, about 60%, about 70% is considered “substantial”) |  | 
7 | O=[N+]([O-])c1nccn1CC(O)CN1CC1 (stereo not drawn) [RSU-1069, 1-(aziridin-1-yl)-3-(2-nitro-1H-imidazol-1-yl)propan-2-ol] | substantially minimal (A BEE value of less than about 15%, less than about 10%, less than about 5%, less than about 1% or zero is considered “substantially minimal”) |  | 
8 | O=C(NCC(O)CO)c1cc(N2CC2)c([N+](=O)[O-])cc1[N+](=O)[O-] (stereo not drawn) [SN26634, 5-(aziridin-1-yl)-N-(2,3-dihydroxypropyl)-2,4-dinitrobenzamide] | substantially minimal (A BEE value of less than about 15%, less than about 10%, less than about 5%, less than about 1% or zero is considered “substantially minimal”) |  | 
9 | O=C(NCCO)c1cc([N+](=O)[O-])cc([N+](=O)[O-])c1N(CCBr)CCBr [SN27686, 2-(bis(2-bromoethyl)amino)-N-(2-hydroxyethyl)-3,5-dinitrobenzamide] | substantial (a BEE value of greater than about 50%, about 60%, about 70% is considered “substantial”) |  | 
10 | CS(=O)(=O)OCCN(CCOS(C)(=O)=O)c1c(C(=O)NCCO)cc([N+](=O)[O-])cc1[N+](=O)[O-] [SN27857, ((2-((2-hydroxyethyl)carbamoyl)-4,6-dinitrophenyl)azanediyl)bis(ethane-2,1-diyl)dimethanesulfonate] | substantially minimal (A BEE value of less than about 15%, less than about 10%, less than about 5%, less than about 1% or zero is considered “substantially minimal”) |  | 
11 | O=C(NCCO)c1cc(N(CCBr)CCBr)c([N+](=O)[O-])cc1[N+](=O)[O-] [SN28065, 5-(bis(2-bromoethyl)amino)-N-(2-hydroxyethyl)-2,4-dinitrobenzamide] | substantial (a BEE value of greater than about 50%, about 60%, about 70% is considered “substantial”) |  | 
12 | CS(=O)(=O)OCCN(CCBr)c1cc(C(=O)NCCO)c([N+](=O)[O-])cc1[N+](=O)[O-] [SN28099, 2-((2-bromoethyl)(5-((2-hydroxyethyl)carbamoyl)-2,4-dinitrophenyl)amino)ethyl methanesulfonate] | substantial (a BEE value of greater than about 50%, about 60%, about 70% is considered “substantial”) |  | 
13 | CN(CCO)C(=O)c1cc([N+](=O)[O-])cc([N+](=O)[O-])c1N(CCBr)CCBr [SN31609, 2-(bis(2-bromoethyl)amino)-N-(2-hydroxyethyl)-N-methyl-3,5-dinitrobenzamide] | substantial (a BEE value of greater than about 50%, about 60%, about 70% is considered “substantial”) |  | 
14 | CCN(CCO)C(=O)c1cc([N+](=O)[O-])cc([N+](=O)[O-])c1N(CCBr)CCBr [SN32102, 2-(bis(2-bromoethyl)amino)-N-ethyl-N-(2-hydroxyethyl)-3,5-dinitrobenzamide] | substantial (a BEE value of greater than about 50%, about 60%, about 70% is considered “substantial”) |  | 
15 | Cn1c(COP(=O)(NCCBr)NCCBr)cnc1[N+](=O)[O-] [TH-302, N,N′-bis(2-bromoethyl)-(1-methyl-2-nitro-1H-imidazol-5-yl)methyl phosphorodiamidic acid ester] | substantial (a BEE value of greater than about 50%, about 60%, about 70% is considered “substantial”) | > 10 fold | > 10 fold
